US20030129658A1
Results are given in words; binding and its absence hold for the method and conditions named. Binding can be weak; no strength is given.

Molecular target: T1, α2-macroglobulin (UniProt Q7SIH1)
T1 sequence (looked up): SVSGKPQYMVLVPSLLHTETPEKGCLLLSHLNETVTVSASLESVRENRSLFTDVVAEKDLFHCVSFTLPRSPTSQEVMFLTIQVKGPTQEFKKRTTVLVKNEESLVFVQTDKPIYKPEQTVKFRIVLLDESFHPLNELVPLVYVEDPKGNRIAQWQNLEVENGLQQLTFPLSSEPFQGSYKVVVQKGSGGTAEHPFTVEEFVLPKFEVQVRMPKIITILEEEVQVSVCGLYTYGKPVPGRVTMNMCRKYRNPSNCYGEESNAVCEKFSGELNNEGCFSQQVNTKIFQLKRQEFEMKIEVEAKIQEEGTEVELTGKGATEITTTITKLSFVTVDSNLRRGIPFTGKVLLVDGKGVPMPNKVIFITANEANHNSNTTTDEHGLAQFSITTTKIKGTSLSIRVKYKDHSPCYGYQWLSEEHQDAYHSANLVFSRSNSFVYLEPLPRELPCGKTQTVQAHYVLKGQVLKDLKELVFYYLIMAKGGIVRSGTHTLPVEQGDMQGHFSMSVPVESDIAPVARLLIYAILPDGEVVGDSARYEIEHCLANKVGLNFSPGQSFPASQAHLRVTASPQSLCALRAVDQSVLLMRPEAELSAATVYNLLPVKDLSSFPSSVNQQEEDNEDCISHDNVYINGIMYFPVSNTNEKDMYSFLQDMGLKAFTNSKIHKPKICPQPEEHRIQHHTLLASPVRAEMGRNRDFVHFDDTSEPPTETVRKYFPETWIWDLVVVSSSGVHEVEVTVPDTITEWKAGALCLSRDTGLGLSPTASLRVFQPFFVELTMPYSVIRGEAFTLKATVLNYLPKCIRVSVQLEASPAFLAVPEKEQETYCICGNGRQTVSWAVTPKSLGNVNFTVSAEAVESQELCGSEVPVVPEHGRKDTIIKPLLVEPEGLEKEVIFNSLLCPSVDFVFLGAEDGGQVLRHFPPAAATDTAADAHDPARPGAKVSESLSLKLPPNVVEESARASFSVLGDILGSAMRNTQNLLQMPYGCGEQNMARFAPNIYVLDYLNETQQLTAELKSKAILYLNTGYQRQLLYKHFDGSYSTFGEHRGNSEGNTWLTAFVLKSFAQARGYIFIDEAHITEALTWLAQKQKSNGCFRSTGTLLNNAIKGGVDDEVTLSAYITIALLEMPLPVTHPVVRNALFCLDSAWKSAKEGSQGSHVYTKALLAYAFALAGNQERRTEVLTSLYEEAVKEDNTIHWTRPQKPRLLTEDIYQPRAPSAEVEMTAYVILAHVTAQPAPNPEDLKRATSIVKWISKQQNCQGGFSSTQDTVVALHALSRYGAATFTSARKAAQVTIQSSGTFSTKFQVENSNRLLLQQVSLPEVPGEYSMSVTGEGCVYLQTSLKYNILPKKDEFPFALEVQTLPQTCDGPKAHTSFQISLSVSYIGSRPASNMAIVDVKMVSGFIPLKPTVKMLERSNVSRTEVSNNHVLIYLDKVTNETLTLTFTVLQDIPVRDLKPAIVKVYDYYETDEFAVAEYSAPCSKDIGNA
Assay: reducing SDS-PAGE and western blot with goat anti-α2-macroglobulin antibody; ~250 kDa band in culture supernatant with serum

binding: binds
Substance: MDTS9 truncated protein (MDTS9Cys2) (enzyme)
